# The supplement of paper PMC8616043
# Where a name gives a salt, the structure may show the parent alone. The list shows a part of the results. This data set is noisy: repeats of one test often differ as much as different tests do.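 PR50, a 50-repeat proline–arginine dipeptide protein from C9ORF72 (ALS/FTD), was expressed by transfection in U-2 OS human cells stably carrying a GFP sensor with import and classical export signals. Per-well nuclear-minus-cytoplasm GFP, normalized between in-plate DMSO (low) and PR-only (high), was scored versus other test wells; compounds well below zero were hits reversing PR.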
# Tested on: U-2 OS NCT-C biosensor cells expressing PR50
# Assay: Z-score of normalised NCT-C biosensor translocation index in PR50-expressing cells; higher = more nuclear biosensor (more disrupted nuclear export)
# Settings: 3 µM; 24 h
row,Structure (SMILES),Z-score
1,CCCCC[C@H](O)/C=C/[C@H]1C=CC(=O)[C@@H]1CCCCCCC(=O)O [Prostaglandin A1],inactive: -0.153
2,CC(C)NCC(O)c1ccc(NS(C)(=O)=O)cc1 (racemic) [(+-)-Sotalol hydrochloride],inactive: -0.912
3,N=C(N)NC(=O)c1nc(Cl)c(N)nc1N [Amiloride hydrochloride],inactive: -0.169
4,N=C(N)NC(=O)c1nc(Cl)c(N)nc1N [Amiloride·HCl·2H2O],inactive: -1.18
5,CCC(=O)N1CCOc2c(cc(-c3ccc(OC)c(OC)c3)cc2OC[C@H]2CCCN(C)C2)C1,active: -2.33
6,O=C1N/C(=N\S(=O)(=O)c2cccc3ccccc23)S/C1=C\c1ccc(Br)cc1 [Pitstop 2],inactive: 0.584
7,COc1cccc(OC)c1OCCNCC1COc2ccccc2O1 (stereo not given) [WB-4101  hydrochloride],inactive: -1.16
8,O=C1NCN(c2ccccc2)C12CCN(CCCC(c1ccc(F)cc1)c1ccc(F)cc1)CC2 [Fluspirilene],inactive: -0.571
9,CC1(C)CC=C(c2ccccc2)c2cc(/C=C/c3ccc(C(=O)O)cc3)ccc21,inactive: -0.54
10,Nc1ccccc1NC(=O)c1ccc(CNC(=O)OCc2cccnc2)cc1 [Entinostat (MS-275)],inactive: -1.55
11,NC(N)=NCc1cccc(I)c1 [m-Iodobenzyl guanidine hemisulfate],inactive: 0.596
12,COc1cc2c(cc1OC)C(=O)C(CC1CCN(Cc3ccccc3)CC1)C2 (stereo not given) [Donepezil·HCl],inactive: 0.213
13,CC(C)(C)c1ccc(CN2CCN(C(c3ccccc3)c3ccc(Cl)cc3)CC2)cc1 (stereo not given) [Buclizine dihydrochloride],inactive: -0.231
14,N#CC(=C(/N)Sc1ccccc1N)/C(C#N)=C(/N)Sc1ccccc1N,inactive: -0.389
15,NS(=O)(=O)c1cccc2c1c([N+](=O)[O-])cc1nc(O)c(O)nc12 [NBQX disodium],inactive: -0.45
16,COc1ccc(S(=O)(=O)Nc2nc(-c3cccc([N+](=O)[O-])c3)cs2)cc1OC,inactive: -0.699
17,CNCC[C@H](Oc1cccc2ccccc12)c1cccs1 [Duloxetine·HCl],inactive: 0.0486
18,NC(=O)C(=O)O [Sodium Oxamate],inactive: -0.018
19,COCC1=C(C(=O)OC(C)OC(=O)OC(C)C)N2C(=O)[C@@H](NC(=O)/C(=N\OC)c3csc(N)n3)[C@H]2SC1 (stereo not given in full) [Cefpodoxime Proxetil],inactive: 0.316
20,CN(C)c1cc2c(Nc3ccc4c(cnn4Cc4ccccc4)c3)ncnc2cn1,inactive: -0.655
21,C=C1C[C@@]23CC[C@H]4[C@@](C)(CCC[C@@]4(C)C(=O)O[C@@H]4O[C@H](CO)[C@@H](O)[C@H](O)[C@H]4O)[C@@H]2CC[C@]1(O[C@@H]1O[C@H](CO)[C@@H](O)[C@H](O)[C@H]1O[C@@H]1O[C@H](CO)[C@@H](O)[C@H](O)[C@H]1O)C3 [Stevioside],inactive: 0.298
22,C=C1C(=O)[C@]23[C@H](CC[C@@H]1[C@@H]2O)[C@]12CO[C@@]3(O)[C@H](O)[C@H]1C(C)(C)CC[C@@H]2O [Rubescensin A],inactive: -0.621
23,Cc1ccnc2c1NC(=O)c1cccnc1N2C1CC1 [Nevirapine],inactive: -0.61
24,CN(C)CCC=C1c2ccccc2CCc2ccccc21 [Amitriptyline hydrochloride],inactive: 0.207

# Quoted at random: two records from the list, in no set order.
row,Structure (SMILES),Z-score
14,N#CC(=C(/N)Sc1ccccc1N)/C(C#N)=C(/N)Sc1ccccc1N,inactive: -0.389
8,O=C1NCN(c2ccccc2)C12CCN(CCCC(c1ccc(F)cc1)c1ccc(F)cc1)CC2 [Fluspirilene],inactive: -0.571

# Later entries:

row,Structure (SMILES),Z-score
1,CN(C)CCC=C1c2ccccc2CCc2ccccc21 [Amitriptyline·HCl],inactive: 0.0329
2,Cc1[nH]c(=O)c(C#N)cc1-c1ccncc1 [Milrinone],inactive: -0.421
3,CS(=O)(=O)c1ccc(C2=C(c3ccccc3)C(=O)OC2)cc1 [Rofecoxib],inactive: 1.17
4,Cn1c(=O)c2[nH]cnc2n(C)c1=O [Oxtriphylline],inactive: 0.0463
5,Cn1c(=O)c2[nH]cnc2n(C)c1=O [Aminophylline],inactive: 2.64
6,Cn1c(=O)c2[nH]cnc2n(C)c1=O [Aminophylline ethylenediamine],inactive: 0.0334
7,C=C[C@H]1CN2CC[C@H]1C[C@@H]2[C@@H](O)c1ccnc2ccc(OC)cc12 [Quinidine·HCl·H2O],inactive: -0.54
8,C=C[C@H]1CN2CC[C@H]1C[C@@H]2[C@@H](O)c1ccnc2ccc(OC)cc12 [Quinidine sulfate],inactive: -0.161
9,CNC(=O)[C@H]1O[C@@H](n2cnc3c(NCc4cccc(I)c4)ncnc32)[C@H](O)[C@@H]1O,inactive: 0.819
10,O=C1CCC(N2C(=O)c3ccccc3C2=O)C(=O)N1 (racemic) [(+/-)-Thalidomide],inactive: -0.0463
11,N=C(N)N [Guanidine·HCl],inactive: 0.311
12,Cc1cccc(C)c1NC(=O)C1CCCCN1C (stereo not given) [Mepivacaine·HCl],inactive: 0.0738
13,COc1cc(/C=C/C(=O)N2CCC=CC2=O)cc(OC)c1OC [Piperlongumine],inactive: 1.04
14,CC(C)(S)[C@@H](N)C(=O)O [Penicillamine (D-Penicillamine)],inactive: -0.582
15,Cc1cc(C(=O)NNCc2ccccc2)no1 [Isocarboxazid],inactive: 0.762
16,COc1ccc(-c2ccc(=N)n(CCCC(=O)O)n2)cc1,inactive: -0.757
17,CO[C@H]1C[C@H](O[C@H]2[C@H](C)[C@@H](O[C@@H]3O[C@H](C)C[C@H](N(C)C)[C@H]3OC(C)=O)[C@@H](C)C[C@@]3(CO3)C(=O)[C@H](C)[C@@H](OC(C)=O)[C@@H](C)[C@@H](C)OC(=O)[C@@H]2C)O[C@@H](C)[C@@H]1OC(C)=O [Troleandomycin],inactive: -0.478
18,CSc1ccc(C(=O)c2[nH]c(=O)[nH]c2C)cc1 [Enoximone],inactive: 1.83
19,S=C(Nc1ccccc1)Nc1nccs1 [1-Phenyl-3-(2- thiazolyl)-2- thiourea],inactive: 0.275
20,CCCCCCCCCCC[C@@H](C[C@@H]1OC(=O)[C@H]1CCCCCC)OC(=O)[C@H](CC(C)C)NC=O [Orlistat (Tetrahydrolipstatin)],inactive: -0.295
21,Cc1ccc(/C(=C\CN2CCCC2)c2cccc(/C=C/C(=O)O)n2)cc1 [Acrivastine],inactive: 0.0958
22,CCCCCCCCCCCCCC/C(C(=O)O)=C(\C)C(=O)O [Chaetomellic acid A],inactive: -0.402
23,CC(=O)NO [Acetohydroxamic Acid],inactive: 0.428
24,N[C@@H](Cn1ccc(=O)c(O)c1)C(=O)O [L-Mimosine],inactive: -1.09

row,Structure (SMILES),Z-score
1,N[C@@H](Cn1ccc(=O)c(O)c1)C(=O)O [L-Mimosine from Koa hoale seeds],inactive: -0.0347
2,Cn1ccnc1S [Methimazole],inactive: 0.0567
3,Nc1ccc(-c2nc3ccc(-c4nc5ccc(N)cc5[nH]4)cc3[nH]2)cc1,inactive: 0.355
4,CS(=O)(=O)CCNCc1ccc(-c2ccc3ncnc(Nc4ccc(OCc5cccc(F)c5)c(Cl)c4)c3c2)o1 [Lapatinib Ditosylate],inactive: -0.119
5,CN1CCc2ccccc2Cc2[nH]c3ccccc3c2CC1,inactive: -0.823
6,CC[C@H](CC[C@@H](C)[C@H]1CC[C@H]2[C@@H]3CC=C4C[C@@H](O)CC[C@]4(C)[C@H]3CC[C@]12C)C(C)C [β-Sitosterol],inactive: 0.553
7,CCCN(CCC)C(=O)C(CCC(=O)O)NC(=O)c1ccccc1 (stereo not given) [Proglumide],inactive: -0.187
8,COc1ccccc1N1CCN(CC(O)COc2cccc3ccccc23)CC1 (stereo not given) [Naftopidil dihydrochloride],inactive: -0.382
9,CN1CCC(=C2c3ccccc3CC(=O)c3sccc32)CC1 [Ketotifen fumarate],inactive: -0.561
10,CN1CCC(=C2c3ccccc3CC(=O)c3sccc32)CC1 [Ketotifen Fumarate],inactive: -0.000237
11,CC(C)(C)C(=O)OCOP(=O)(COCCn1cnc2c(N)ncnc21)OCOC(=O)C(C)(C)C [Adefovir Dipivoxil],inactive: 0.254
12,OCC1=C[C@@H](O)[C@@H]2C=CO[C@@H](O[C@@H]3O[C@H](CO)[C@@H](O)[C@H](O)[C@H]3O)[C@H]12 [Aucubin],inactive: 0.104
13,CC(=O)NCCc1c[nH]c2ccc(O)cc12 [N-Acetyl-5- hydroxytryptamine],inactive: 0.0718
14,O=c1ccc2ccc(O)c(O)c2o1 [Daphnetin],inactive: -0.542
15,CCC(NC(C)C)C(O)c1ccc(O)c(O)c1 (stereo not given) [Isoetharine mesylate salt],inactive: 1.38
16,CN1CCc2cccc3c2[C@H]1Cc1ccc(O)c(O)c1-3 [R-(-)-  Apomorphine hydrochloride hemihydrate],inactive: 0.0488
17,CN1CCc2cccc3c2[C@H]1Cc1ccc(O)c(O)c1-3 [Apomorphine·HCl Hemihydrate],inactive: 0.789
18,COc1cc(/C=C/C(=O)c2ccc(O)cc2O)ccc1O [Homobutein],inactive: -0.00806
19,"c1cnc2c(c1)ccc1cccnc12 [1,10-Phenanthroline monohydrate]",inactive: -0.453
20,CCOC(=O)C(C)(C)Oc1ccc(Cl)cc1 [Clofibrate],inactive: -0.0991
21,CC(C)NC[C@H](O)COc1ccc(CC(N)=O)cc1 [S(-)-Atenolol],inactive: 0.0335
22,CO[C@@]1(NC(=O)CSCC#N)C(=O)N2C(C(=O)O)=C(CSc3nnnn3C)CS[C@@H]21 [Cefmetazole sodium salt],inactive: 0.00972
